These are yes or no findings as the source states them, for the method shown. Some binding calls cover weakened binding; strength is not graded here.
Tests used:
[1] = biological target: canine PD-L1 extracellular domain-human IgG1 Fc fusion protein (canine); assay: ELISA, plate coated with canine PD-L1-hFc, detected with anti-mouse IgG-HRP
[2] = biological target: canine PD-L1 extracellular domain-human IgG1 Fc fusion protein (canine); assay: ELISA, plate coated with canine PD-L1-hFc, two-fold dilutions of mAb, detection with HRP goat anti-mouse IgG, OD 650/490
[3] = biological target: canine PD-L1 extracellular domain-human IgG1 Fc fusion protein (canine); assay: cell-based ELISA (CELISA): mAb pre-incubated with cPD-L1-hFc, then added to CHO cells expressing canine PD-1; bound cPD-L1-hFc detected with anti-human Fc-HRP, OD 450-620 nm; blocked partner: canine PD-1

- binding [1]: binds
- binding [2]: binds
- binding [3]: binds
B1: mouse anti-canine PD-L1 monoclonal antibody 4F9 (antibody, V domains shown)
VH: EVQLVESGGGLVKPGGSLKLSCAASGFTFSSYAMSWVRQTPDKRLEWVATISDGGSYTHYPDNLMGRFTISRDNAKNNLYLQMSHLKSDDTAMYYCARESYDGYYVANWGQGTLVTVSA
VL: DIVLTQSPATLSVNPGDSVSLSCRASQSISNNLHWYQQKSHESPRLLIKYASQSISGIPSRFSGSGSGTDFTLSINSVETEDFGMYFCQQSNSWPQTFGGGTKLEIK

Source: US20200109212A1
